Out of some 410,000 compounds screened, about 310 (0.076%) were called active. The inconclusive results got no clear call from the source; some entries with a clear call stand among them for comparison. Calls come from the whole dose curve; as a rule, active = well fitted activation curve with a large enough effect; inconclusive = small, poorly fitted or top-dose-only effect, or another doubt; inactive = no such curve, though single readings can be large or run the other way. A potency beside an inconclusive call is a rough fit, not a confirmed value.
Target: Parathyroid hormone/parathyroid hormone-related peptide receptor (Homo sapiens) (UniProt Q03431)
Assay: qHTS for PTHR1 Agonists: Primary Screen; note: nearly all actives have a fitted effect of over 55% in size
Conditions: HEK293 GP2 PTHR1 cells, GloSensor cAMP luminescence, 1 h; activation: at 115 µM (top of the series) unless noted; series mostly up to 115 µM
Procedure, shortened: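 HEK-293-derived GP2 cells expressing PTHR1 and a GloSensor cAMP reporter, 3,000/well, plated overnight, given luciferin plus IBMX (each 0.5 mM as added) for 1 h at 37 °C, then compound for 1 h at 37 °C. Luminescence was read after 15 min at room temperature.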
Potency is the fitted concentration of half-maximal effect.

Amino acid sequences for entries named in this document (tags omitted). A change or cut given only in a name is not applied to a line headed by its entry.
UniProt Q03431: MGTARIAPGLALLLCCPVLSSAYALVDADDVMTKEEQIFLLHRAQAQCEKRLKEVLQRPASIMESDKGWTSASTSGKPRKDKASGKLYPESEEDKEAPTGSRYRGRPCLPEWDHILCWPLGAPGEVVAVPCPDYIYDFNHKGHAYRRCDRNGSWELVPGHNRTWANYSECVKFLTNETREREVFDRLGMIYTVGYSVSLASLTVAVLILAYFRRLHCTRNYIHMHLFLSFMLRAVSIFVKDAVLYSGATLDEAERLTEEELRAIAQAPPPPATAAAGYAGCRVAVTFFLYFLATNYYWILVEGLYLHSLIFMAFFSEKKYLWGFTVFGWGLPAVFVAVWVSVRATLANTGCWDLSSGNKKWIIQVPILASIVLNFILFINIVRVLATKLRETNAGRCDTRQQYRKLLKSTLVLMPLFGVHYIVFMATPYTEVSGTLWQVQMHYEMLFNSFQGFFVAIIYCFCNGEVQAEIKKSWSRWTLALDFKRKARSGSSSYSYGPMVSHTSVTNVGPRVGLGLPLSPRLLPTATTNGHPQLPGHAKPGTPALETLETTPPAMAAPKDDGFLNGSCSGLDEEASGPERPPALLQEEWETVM

Compound	activation	Potency
CCN(CC)CCNc1nc2c(c(=O)[nH]c(=O)n2C)n1CC(O)COc1ccc(Cl)cc1Cl (centres undefined)	inconclusive: 39.1% [activator] [at 57.5 µM]	–
CN(Cc1ccccc1)C(=O)Nc1c(Cl)cccc1Cl	–	inconclusive: 25.1 µM [activator, single point]
NNC(=O)c1cc2sccc2s1	–	inconclusive: 14.1 µM [activator, partial curve]
N#CC1=C(N)N2C(=C(C#N)C1c1cccc(Br)c1)Nc1ccccc12 (centres undefined)	–	inactive
Cc1ccc(OCC(=O)Nc2ccc3nc(SCC(=O)Nc4ccc(C)cc4C)sc3c2)cc1	–	inactive
Cc1cc(C)n2nc(SCc3ccccc3C(=O)O)nc2n1	–	inconclusive: 22.4 µM [activator, partial curve, poor fit]
COc1ccc(/C=C/C(=O)N(c2ccccn2)C2CCCCC2)cc1OC	–	inconclusive: 39.8 µM [activator, partial curve, poor fit]
CCC(CC)CN1CCC(CN2CCNC(=O)C2=O)CC1	inconclusive: 47.7% [activator]	–
O=C(Nc1ccc(-c2nc3cc(NC(=O)c4ccccc4F)ccc3o2)cc1)c1ccccc1F	–	inconclusive: 56.2 µM [activator, partial curve, poor fit]
COc1ccc2nc(NC(=O)C3CC(=O)N(c4ccc5c(c4)OCCO5)C3)sc2c1 (centres undefined)	–	inactive
CCCCC[C@H](O)/C=C/[C@@H]1[C@@H](C/C=C\CCCC(=O)O)[C@H]2CO[C@@H]1C2	–	inconclusive: 4.47 µM [activator, full curve, poor fit]
COc1cc(C2C(C#N)=C(N)Oc3cc(N(C)C)ccc32)cc2c1OCO2 (centres undefined)	–	inconclusive: 3.98 µM [activator, partial curve, poor fit]
COc1cc2c(-c3ccccc3O)nc3c(c(C)nn3-c3ccccc3)c2cc1OC	–	inactive
CCCc1cc(=O)[nH]c(SCC(=O)N2CCCCCC2)n1	–	inactive
CCOC(=O)c1ccc(S(=O)(=O)N2CCN(CC(O)COc3cccc(C(C)=O)c3)CC2)cc1 (centres undefined)	inconclusive: 38.3% [activator]	–
CCOC(=O)CN(C(=O)CSc1nnc2c(n1)[nH]c1ccc(OC)cc12)c1ccc(F)cc1	inconclusive: -41.7% [activator]	–
Cc1ccc(C2=CC(C)(c3ccc(C)cc3)Nc3nc(C(F)(F)F)nn32)cc1 (centres undefined)	–	inactive
CCN(CC)CCNC(=O)c1cc2c(=O)[nH]c3ccc(C)cc3c2s1	–	inconclusive: 50.1 µM [activator, partial curve, poor fit]
COC(=O)CSc1nnc2n(-c3ccccc3)c(=O)c3c4c(sc3n12)COC(C(C)C)C4 (centres undefined)	–	inconclusive: 3.16 µM [activator, full curve, poor fit]
CS(=O)(=O)c1ccc([C@@H](O)[C@@H](CO)NC(=O)C(Cl)Cl)cc1	–	inactive
COc1ccc(/C(C)=N/NC(=S)Nc2cc(C)ccc2C)cc1	inconclusive: -72.6% [activator]	–
CSc1ccc(CN2CCC2(C)C(=O)NCc2ccccc2Br)cc1 (centres undefined)	inconclusive: -16.1% [activator]	–

Retrieved by structure from the list above, two records:
Compound	activation	Potency
CCOC(=O)c1ccc(S(=O)(=O)N2CCN(CC(O)COc3cccc(C(C)=O)c3)CC2)cc1 (centres undefined)	inconclusive: 38.3% [activator]	–
COc1ccc(/C(C)=N/NC(=S)Nc2cc(C)ccc2C)cc1	inconclusive: -72.6% [activator]	–

More structures.

Compound	activation	Potency
CC(C)CNC(=O)C1(C)CCCN1Cc1ccc(OC(F)(F)F)cc1 (centres undefined)	–	inactive
CCCCC(=O)NC1=NC(=O)C(C)(C)S1	–	inconclusive: 28.2 µM [activator, single point]
CCN(CC)c1ccc(CNc2nc3ccccc3n2CC)cc1	inconclusive: 4.69% [activator]	–
O=C(COC(=O)/C=C/c1ccc(OC(F)F)cc1)Nc1ccc(S(=O)(=O)N2CCCC2)cc1	–	inactive
Cc1ccc(O)c(NC(=O)c2ccc3c(c2)C(=O)N(Cc2ccco2)C3=O)c1	inconclusive: -64.7% [activator]	–
CSc1ccc(CN(C)CC(=O)Nc2c(F)cccc2F)cc1	–	inactive
CCN(C(=O)CN1C(=O)S/C(=C\C=C\c2ccccc2)C1=O)C1CCS(=O)(=O)C1 (centres undefined)	–	inconclusive: 11.2 µM [activator, partial curve]
Cc1ccc(-c2cc(C(=O)Oc3ccccc3)c3cc(C)ccc3n2)cc1	–	inactive
Cc1ccc2oc3c(c(=O)c2c1)C(c1cccc(O)c1)N(c1ccccn1)C3=O (centres undefined)	–	inactive
Cc1cccc(C)c1NC(=O)C(C1CC1)n1c(=O)c(-c2cc3ccccc3[nH]2)nc2ccccc21 (centres undefined)	–	inconclusive: 6.31 µM [activator, full curve, poor fit]
O=C(NC1CC1)c1ccc2sc([C@H]3C[C@H](O)[C@@H](CO)O3)nc2c1	–	inactive
CCOC(=O)C1=C(C)Nc2nc(SCC)[nH]c(=O)c2C1c1ccncc1 (centres undefined)	–	inconclusive: 44.7 µM [activator, partial curve, poor fit]
NC(=O)c1c(NC(=O)c2c(F)cccc2F)sc2c1CCN(Cc1ccccc1)C2	–	inactive
CCOC(=O)c1cc(C)n(CC2CCC(C(=O)Nc3ccc(C)c(F)c3)CC2)c1C (centres undefined)	–	inactive
O=C(OCCN1C(=O)c2ccccc2C1=O)c1cccs1	–	inconclusive: 35.5 µM [activator, partial curve, poor fit]
Cc1oc2ccc(OCc3ccc(F)cc3Cl)cc2c1C(=O)O	inconclusive: 35.6% [activator]	–
CCc1nc2ccc(C(=O)Nc3cccc(NS(C)(=O)=O)c3)cn2c1N(C)C(=O)Cc1ccccc1	–	inconclusive: 8.91 µM [activator, partial curve, poor fit]
CCN(CC(=O)NCc1cccs1)C(=O)c1cccc(S(=O)(=O)N2CC(C)OC(C)C2)c1 (centres undefined)	–	inconclusive: 56.2 µM [activator, single point]
O=C(O)CSc1cc(NS(=O)(=O)c2ccc(Br)cc2)c2ccccc2c1O	–	inactive
CN(C)CCCN(C(=O)c1cc(Cl)sc1Cl)c1nc2cc3c(cc2s1)OCO3	–	inconclusive: 31.6 µM [activator, partial curve, poor fit]
Cc1cc(C(=O)NC2CCCCC2)on1	–	inconclusive: 141 µM [activator, single point]
CCOC(=O)C1CCN(C(=O)c2ccc3c(=O)n4nc(Nc5cc(C)ccc5C)sc4nc3c2)CC1	inconclusive: -49.6% [activator]	–
